Source: US11884956B2, “Methods for detecting mycobacteria with solvatochromic dye conjugates” (priority 2016, dated 2024)
At least one compound was matched to its structure with a doubt left.

System: Msmeg cells
Assay: Ebselen inhibition studies
Details: 25, 50 or 100 μg/mL ebselen for 3 h, then DMN-Tre 1 h; FIG. 12E

## O=c1c2ccccc2[se]n1-c1ccccc1 [ebselen]
  effect on DMN-Tre labeling: decreased DMN-Tre labeling of Msmeg cells in a dose-dependent manner
